PubChem BioAssay AID1224830 – NIAID, 2016

- Screen: 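Regulators of TLR4 signalling towards TNF-alpha in macrophage-like cells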 (primary screen)
- Cell system: human THP-1 monocytic leukaemia cells, TNF dual-luciferase reporter clone, PMA-differentiated to macrophage-like cells
- Reagent: siRNA pool against human genes, 50 nM
- Duration: LPS for 4 h, given about 3 days after siRNA transfection
- Treatment: bacterial LPS (TLR4 ligand), 10 ng/ml
- Measured: 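TNF firefly reporter luminescence divided by renilla, normalised to the plate median, then turned into a robust z-score for each replicate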
- Reading the numbers: TNF reporter robust z-score: higher = stronger TNF reporter response to LPS
- Active means: 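Each well counts as active if its z-score is over 2.8 or under -1.5; controls are left without a call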
The whole screen tested about 18,000 reagents; below is an unselected part. About 2,900 of them (16%) were called active. 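Calls are made per well; low scores hint the gene aids the LPS response, high scores that it dampens it.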 Repeated entries: four replicate wells of each siRNA pool.

UBE4B (GeneID 10277) [SID315453968]
- TNF reporter robust z-score: -0.97
- Outcome: inactive

UBE4B (GeneID 10277) [SID315453968]
- TNF reporter robust z-score: 0.52
- Outcome: inactive

UBE4B (GeneID 10277) [SID315453968]
- TNF reporter robust z-score: 0.3
- Outcome: inactive

UBE4B (GeneID 10277) [SID315453968]
- TNF reporter robust z-score: 0.46
- Outcome: inactive

SLC35D2 (GeneID 11046) [SID315454559]
- TNF reporter robust z-score: -1.42
- Outcome: inactive

SLC35D2 (GeneID 11046) [SID315454559]
- TNF reporter robust z-score: -1.14
- Outcome: inactive

SLC35D2 (GeneID 11046) [SID315454559]
- TNF reporter robust z-score: -0.79
- Outcome: inactive

SLC35D2 (GeneID 11046) [SID315454559]
- TNF reporter robust z-score: -0.62
- Outcome: inactive

CAPN12 (GeneID 147968) [SID315462355]
- TNF reporter robust z-score: -1.43
- Outcome: inactive

CAPN12 (GeneID 147968) [SID315462355]
- TNF reporter robust z-score: -1.29
- Outcome: inactive

CAPN12 (GeneID 147968) [SID315462355]
- TNF reporter robust z-score: -1.11
- Outcome: inactive

CAPN12 (GeneID 147968) [SID315462355]
- TNF reporter robust z-score: -1.35
- Outcome: inactive

POMP (GeneID 51371) [SID315456676]
- TNF reporter robust z-score: -2.01
- Outcome: active

POMP (GeneID 51371) [SID315456676]
- TNF reporter robust z-score: -1.93
- Outcome: active

POMP (GeneID 51371) [SID315456676]
- TNF reporter robust z-score: -1.29
- Outcome: inactive

POMP (GeneID 51371) [SID315456676]
- TNF reporter robust z-score: -1.5
- Outcome: inactive

EPHA7 (GeneID 2045) [SID315448530]
- TNF reporter robust z-score: 0.22
- Outcome: inactive

EPHA7 (GeneID 2045) [SID315448530]
- TNF reporter robust z-score: -0.04
- Outcome: inactive

EPHA7 (GeneID 2045) [SID315448530]
- TNF reporter robust z-score: 0.73
- Outcome: inactive

EPHA7 (GeneID 2045) [SID315448530]
- TNF reporter robust z-score: 0.44
- Outcome: inactive

YWHAE (GeneID 7531) [SID315452174]
- TNF reporter robust z-score: 1.49
- Outcome: inactive

YWHAE (GeneID 7531) [SID315452174]
- TNF reporter robust z-score: 0.6
- Outcome: inactive

YWHAE (GeneID 7531) [SID315452174]
- TNF reporter robust z-score: 0.87
- Outcome: inactive

RNF146 (GeneID 81847) [SID315459956]
- TNF reporter robust z-score: -1.43
- Outcome: inactive

RNF146 (GeneID 81847) [SID315459956]
- TNF reporter robust z-score: 0.39
- Outcome: inactive

RNF146 (GeneID 81847) [SID315459956]
- TNF reporter robust z-score: -0.37
- Outcome: inactive

RNF146 (GeneID 81847) [SID315459956]
- TNF reporter robust z-score: 1.77
- Outcome: inactive

BGLAP (GeneID 632) [SID315447543]
- TNF reporter robust z-score: -0.09
- Outcome: inactive

BGLAP (GeneID 632) [SID315447543]
- TNF reporter robust z-score: -0.44
- Outcome: inactive

BGLAP (GeneID 632) [SID315447543]
- TNF reporter robust z-score: -1.09
- Outcome: inactive

BGLAP (GeneID 632) [SID315447543]
- TNF reporter robust z-score: -0.36
- Outcome: inactive

RAB3A (GeneID 5864) [SID315451007]
- TNF reporter robust z-score: 0.64
- Outcome: inactive

RAB3A (GeneID 5864) [SID315451007]
- TNF reporter robust z-score: 2.44
- Outcome: inactive

RAB3A (GeneID 5864) [SID315451007]
- TNF reporter robust z-score: 2.42
- Outcome: inactive

RAB3A (GeneID 5864) [SID315451007]
- TNF reporter robust z-score: 1.13
- Outcome: inactive

PYDC1 (GeneID 260434) [SID315463593]
- TNF reporter robust z-score: -1.36
- Outcome: inactive

PYDC1 (GeneID 260434) [SID315463593]
- TNF reporter robust z-score: -1.39
- Outcome: inactive

PYDC1 (GeneID 260434) [SID315463593]
- TNF reporter robust z-score: -0.91
- Outcome: inactive

PYDC1 (GeneID 260434) [SID315463593]
- TNF reporter robust z-score: -1.23
- Outcome: inactive

CD79A (GeneID 973) [SID315447808]
- TNF reporter robust z-score: 1.18
- Outcome: inactive

CD79A (GeneID 973) [SID315447808]
- TNF reporter robust z-score: 1.28
- Outcome: inactive

CD79A (GeneID 973) [SID315447808]
- TNF reporter robust z-score: 1.51
- Outcome: inactive

CD79A (GeneID 973) [SID315447808]
- TNF reporter robust z-score: 0.42
- Outcome: inactive

VASH1 (GeneID 22846) [SID315454813]
- TNF reporter robust z-score: -0.96
- Outcome: inactive

VASH1 (GeneID 22846) [SID315454813]
- TNF reporter robust z-score: -1.03
- Outcome: inactive

VASH1 (GeneID 22846) [SID315454813]
- TNF reporter robust z-score: -0.82
- Outcome: inactive

VASH1 (GeneID 22846) [SID315454813]
- TNF reporter robust z-score: -0.74
- Outcome: inactive
